{"sequences": {"note": "Protein sequences, listed by entry. Tags and fused reporters are not part of them. Lines headed by an entry give the natural chain unless they say otherwise; changes in a name come on top.", "UniProt A0A162ZXY0": "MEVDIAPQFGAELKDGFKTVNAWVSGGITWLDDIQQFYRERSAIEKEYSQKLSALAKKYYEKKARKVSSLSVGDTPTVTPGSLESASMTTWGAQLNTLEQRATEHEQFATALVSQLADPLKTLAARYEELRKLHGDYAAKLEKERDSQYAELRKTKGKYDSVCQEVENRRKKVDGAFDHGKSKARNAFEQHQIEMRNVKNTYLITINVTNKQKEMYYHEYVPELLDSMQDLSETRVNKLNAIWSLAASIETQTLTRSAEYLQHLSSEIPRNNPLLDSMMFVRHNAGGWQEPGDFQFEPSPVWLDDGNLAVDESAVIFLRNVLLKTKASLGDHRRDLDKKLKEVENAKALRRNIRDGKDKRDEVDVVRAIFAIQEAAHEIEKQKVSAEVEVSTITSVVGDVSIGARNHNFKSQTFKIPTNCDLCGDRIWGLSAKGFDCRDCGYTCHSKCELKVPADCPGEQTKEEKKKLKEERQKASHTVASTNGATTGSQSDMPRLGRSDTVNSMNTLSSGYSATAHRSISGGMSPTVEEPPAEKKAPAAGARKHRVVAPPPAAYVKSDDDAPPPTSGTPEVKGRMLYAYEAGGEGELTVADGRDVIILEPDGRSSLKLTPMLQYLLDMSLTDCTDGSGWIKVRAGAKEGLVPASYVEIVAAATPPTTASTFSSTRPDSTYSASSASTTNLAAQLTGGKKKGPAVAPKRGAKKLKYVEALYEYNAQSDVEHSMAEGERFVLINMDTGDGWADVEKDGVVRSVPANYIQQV"}, "source": "paper PMC8158962", "about": "“Modulation of fungal virulence through CRZ1 regulated F-BAR-dependent actin remodeling and endocytosis in chickpea infecting phytopathogen Ascochyta rabiei”", "target": "ArWASp (Wiskott-Aldrich syndrome protein of Ascochyta rabiei) (Ascochyta rabiei)", "assay": "two-hybrid; split-ubiquitin based DUALhunter system in yeast cytoplasm, strain NMY51, vectors pGDHB1 and pGPR3-N; growth on QDO (SD/-L/-W/-A/-H) against DDO (SD/-L/-W), X-gal overlay for the self-interaction; photographed after 48 h", "note": "These are yes or no findings as the source states them, for the method shown. Binding calls can cover weak binding; strength is not graded here.", "data": [{"substance": "ArF-BAR (F-BAR domain-containing protein of Ascochyta rabiei) (from UniProt A0A162ZXY0)", "values": [{"measurement": "binding", "result": "binds"}]}]}
